No constants are given. Whether binding was seen depends on the method and setting. Binding seen in cells or lysates may run through a third protein. A yes stands for co-enrichment or nearness to the bait. Other partners may have been found. For some of these results: No binding means not detected with the bait. For some of these results: Sequences can lack the tags named with a protein.

Chains of the proteins cited; added tags and fusions are not shown.
UniProt Q60974: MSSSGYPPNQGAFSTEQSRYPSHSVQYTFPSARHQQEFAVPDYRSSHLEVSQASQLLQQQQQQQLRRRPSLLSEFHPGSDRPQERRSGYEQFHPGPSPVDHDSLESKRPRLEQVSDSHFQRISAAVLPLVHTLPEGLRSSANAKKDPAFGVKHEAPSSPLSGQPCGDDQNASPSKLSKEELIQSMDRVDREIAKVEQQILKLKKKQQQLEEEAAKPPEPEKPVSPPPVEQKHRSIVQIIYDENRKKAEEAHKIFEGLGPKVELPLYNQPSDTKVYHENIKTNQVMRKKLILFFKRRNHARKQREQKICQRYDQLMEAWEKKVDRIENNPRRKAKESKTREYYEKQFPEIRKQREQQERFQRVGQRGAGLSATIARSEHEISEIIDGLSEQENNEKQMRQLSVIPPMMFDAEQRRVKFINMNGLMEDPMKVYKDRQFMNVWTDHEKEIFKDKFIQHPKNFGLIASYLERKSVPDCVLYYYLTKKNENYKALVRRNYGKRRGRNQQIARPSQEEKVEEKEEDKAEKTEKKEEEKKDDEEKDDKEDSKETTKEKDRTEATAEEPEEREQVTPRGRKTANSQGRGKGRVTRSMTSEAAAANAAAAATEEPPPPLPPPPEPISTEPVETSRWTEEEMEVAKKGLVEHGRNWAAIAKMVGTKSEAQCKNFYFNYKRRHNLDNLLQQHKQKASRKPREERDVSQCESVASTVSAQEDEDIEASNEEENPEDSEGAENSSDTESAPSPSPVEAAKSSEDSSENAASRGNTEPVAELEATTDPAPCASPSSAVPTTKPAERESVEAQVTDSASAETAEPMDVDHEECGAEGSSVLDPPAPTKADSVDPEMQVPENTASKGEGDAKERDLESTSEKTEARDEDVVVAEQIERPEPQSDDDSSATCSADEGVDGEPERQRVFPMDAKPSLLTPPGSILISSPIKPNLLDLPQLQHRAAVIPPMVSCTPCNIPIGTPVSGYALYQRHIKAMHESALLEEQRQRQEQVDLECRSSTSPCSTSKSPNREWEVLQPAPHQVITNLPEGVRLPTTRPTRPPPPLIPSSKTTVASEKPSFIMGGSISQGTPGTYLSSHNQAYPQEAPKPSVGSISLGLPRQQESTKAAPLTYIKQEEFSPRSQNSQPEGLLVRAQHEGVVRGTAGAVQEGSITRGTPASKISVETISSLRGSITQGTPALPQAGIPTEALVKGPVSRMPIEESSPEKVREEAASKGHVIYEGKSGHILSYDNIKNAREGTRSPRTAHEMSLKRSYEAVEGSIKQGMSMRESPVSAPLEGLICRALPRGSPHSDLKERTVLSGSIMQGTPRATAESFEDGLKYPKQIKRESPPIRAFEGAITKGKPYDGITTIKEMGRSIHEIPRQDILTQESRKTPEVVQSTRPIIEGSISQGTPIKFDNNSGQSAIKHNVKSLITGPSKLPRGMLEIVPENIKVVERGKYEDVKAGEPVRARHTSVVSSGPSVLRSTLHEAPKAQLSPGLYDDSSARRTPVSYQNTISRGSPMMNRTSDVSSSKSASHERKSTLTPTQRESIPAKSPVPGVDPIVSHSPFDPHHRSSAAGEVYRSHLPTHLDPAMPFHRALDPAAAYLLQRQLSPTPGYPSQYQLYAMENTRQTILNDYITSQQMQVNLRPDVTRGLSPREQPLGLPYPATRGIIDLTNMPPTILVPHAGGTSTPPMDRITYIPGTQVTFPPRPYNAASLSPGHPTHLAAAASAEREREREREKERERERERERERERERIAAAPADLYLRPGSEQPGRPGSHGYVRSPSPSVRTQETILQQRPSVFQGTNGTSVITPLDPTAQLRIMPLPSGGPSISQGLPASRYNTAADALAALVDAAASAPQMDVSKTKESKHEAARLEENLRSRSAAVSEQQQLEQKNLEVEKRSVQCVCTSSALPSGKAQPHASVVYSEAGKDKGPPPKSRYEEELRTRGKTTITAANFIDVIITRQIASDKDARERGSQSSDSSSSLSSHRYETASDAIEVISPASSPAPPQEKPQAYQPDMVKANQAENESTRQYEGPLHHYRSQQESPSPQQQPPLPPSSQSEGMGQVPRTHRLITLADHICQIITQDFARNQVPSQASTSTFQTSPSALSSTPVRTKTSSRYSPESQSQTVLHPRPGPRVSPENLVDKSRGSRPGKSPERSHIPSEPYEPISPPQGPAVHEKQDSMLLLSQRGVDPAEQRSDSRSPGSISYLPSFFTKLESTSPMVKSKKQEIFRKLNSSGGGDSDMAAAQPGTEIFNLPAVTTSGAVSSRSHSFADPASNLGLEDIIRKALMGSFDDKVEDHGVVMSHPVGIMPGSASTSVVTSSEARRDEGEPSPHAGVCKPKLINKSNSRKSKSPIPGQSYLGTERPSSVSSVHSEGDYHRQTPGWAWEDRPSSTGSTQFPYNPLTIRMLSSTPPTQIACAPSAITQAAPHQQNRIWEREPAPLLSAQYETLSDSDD
UniProt Q61136: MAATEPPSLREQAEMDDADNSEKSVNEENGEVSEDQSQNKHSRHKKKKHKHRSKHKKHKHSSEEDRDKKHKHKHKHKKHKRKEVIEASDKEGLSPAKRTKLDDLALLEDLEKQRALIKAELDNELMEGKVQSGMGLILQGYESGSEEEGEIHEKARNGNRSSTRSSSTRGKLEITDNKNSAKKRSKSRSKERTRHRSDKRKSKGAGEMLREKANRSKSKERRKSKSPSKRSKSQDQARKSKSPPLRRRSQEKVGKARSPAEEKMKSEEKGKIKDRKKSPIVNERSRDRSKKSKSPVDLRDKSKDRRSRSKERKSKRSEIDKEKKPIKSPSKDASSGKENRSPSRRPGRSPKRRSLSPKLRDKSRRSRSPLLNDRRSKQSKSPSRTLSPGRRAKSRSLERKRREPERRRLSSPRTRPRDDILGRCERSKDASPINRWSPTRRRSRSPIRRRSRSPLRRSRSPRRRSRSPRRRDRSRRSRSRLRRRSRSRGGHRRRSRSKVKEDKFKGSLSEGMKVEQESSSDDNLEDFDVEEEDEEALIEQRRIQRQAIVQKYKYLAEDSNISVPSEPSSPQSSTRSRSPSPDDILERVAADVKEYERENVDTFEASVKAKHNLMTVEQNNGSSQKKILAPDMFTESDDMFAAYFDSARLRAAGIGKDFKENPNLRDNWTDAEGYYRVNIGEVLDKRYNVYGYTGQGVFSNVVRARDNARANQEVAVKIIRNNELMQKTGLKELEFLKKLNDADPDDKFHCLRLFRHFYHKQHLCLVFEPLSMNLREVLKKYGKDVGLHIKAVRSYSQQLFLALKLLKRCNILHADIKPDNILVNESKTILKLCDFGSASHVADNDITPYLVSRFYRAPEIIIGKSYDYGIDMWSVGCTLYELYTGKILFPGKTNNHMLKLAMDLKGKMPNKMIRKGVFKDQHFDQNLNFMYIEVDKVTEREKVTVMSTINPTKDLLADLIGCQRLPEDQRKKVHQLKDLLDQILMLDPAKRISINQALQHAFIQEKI
UniProt Q8BZQ7: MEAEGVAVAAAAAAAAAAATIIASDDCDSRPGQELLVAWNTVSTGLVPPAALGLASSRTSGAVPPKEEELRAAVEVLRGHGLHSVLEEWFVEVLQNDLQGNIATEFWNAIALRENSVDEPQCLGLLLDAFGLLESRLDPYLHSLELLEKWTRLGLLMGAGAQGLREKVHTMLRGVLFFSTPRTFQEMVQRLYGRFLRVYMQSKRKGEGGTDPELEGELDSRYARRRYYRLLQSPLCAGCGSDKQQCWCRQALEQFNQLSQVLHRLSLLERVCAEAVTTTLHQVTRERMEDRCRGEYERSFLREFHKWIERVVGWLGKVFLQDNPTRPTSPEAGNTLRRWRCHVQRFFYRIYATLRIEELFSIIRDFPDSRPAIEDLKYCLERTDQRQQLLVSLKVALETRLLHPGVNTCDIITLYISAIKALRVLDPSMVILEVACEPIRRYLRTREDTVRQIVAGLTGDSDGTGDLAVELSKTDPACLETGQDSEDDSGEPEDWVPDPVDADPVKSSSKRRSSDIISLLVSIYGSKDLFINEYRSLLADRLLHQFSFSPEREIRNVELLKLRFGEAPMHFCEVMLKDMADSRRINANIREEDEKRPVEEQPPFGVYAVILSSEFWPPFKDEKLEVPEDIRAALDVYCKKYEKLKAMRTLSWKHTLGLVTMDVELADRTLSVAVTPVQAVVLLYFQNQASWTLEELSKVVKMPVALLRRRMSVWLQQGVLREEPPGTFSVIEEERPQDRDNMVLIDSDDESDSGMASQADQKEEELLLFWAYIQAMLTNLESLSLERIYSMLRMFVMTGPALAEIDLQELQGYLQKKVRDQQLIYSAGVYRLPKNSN
UniProt P53995: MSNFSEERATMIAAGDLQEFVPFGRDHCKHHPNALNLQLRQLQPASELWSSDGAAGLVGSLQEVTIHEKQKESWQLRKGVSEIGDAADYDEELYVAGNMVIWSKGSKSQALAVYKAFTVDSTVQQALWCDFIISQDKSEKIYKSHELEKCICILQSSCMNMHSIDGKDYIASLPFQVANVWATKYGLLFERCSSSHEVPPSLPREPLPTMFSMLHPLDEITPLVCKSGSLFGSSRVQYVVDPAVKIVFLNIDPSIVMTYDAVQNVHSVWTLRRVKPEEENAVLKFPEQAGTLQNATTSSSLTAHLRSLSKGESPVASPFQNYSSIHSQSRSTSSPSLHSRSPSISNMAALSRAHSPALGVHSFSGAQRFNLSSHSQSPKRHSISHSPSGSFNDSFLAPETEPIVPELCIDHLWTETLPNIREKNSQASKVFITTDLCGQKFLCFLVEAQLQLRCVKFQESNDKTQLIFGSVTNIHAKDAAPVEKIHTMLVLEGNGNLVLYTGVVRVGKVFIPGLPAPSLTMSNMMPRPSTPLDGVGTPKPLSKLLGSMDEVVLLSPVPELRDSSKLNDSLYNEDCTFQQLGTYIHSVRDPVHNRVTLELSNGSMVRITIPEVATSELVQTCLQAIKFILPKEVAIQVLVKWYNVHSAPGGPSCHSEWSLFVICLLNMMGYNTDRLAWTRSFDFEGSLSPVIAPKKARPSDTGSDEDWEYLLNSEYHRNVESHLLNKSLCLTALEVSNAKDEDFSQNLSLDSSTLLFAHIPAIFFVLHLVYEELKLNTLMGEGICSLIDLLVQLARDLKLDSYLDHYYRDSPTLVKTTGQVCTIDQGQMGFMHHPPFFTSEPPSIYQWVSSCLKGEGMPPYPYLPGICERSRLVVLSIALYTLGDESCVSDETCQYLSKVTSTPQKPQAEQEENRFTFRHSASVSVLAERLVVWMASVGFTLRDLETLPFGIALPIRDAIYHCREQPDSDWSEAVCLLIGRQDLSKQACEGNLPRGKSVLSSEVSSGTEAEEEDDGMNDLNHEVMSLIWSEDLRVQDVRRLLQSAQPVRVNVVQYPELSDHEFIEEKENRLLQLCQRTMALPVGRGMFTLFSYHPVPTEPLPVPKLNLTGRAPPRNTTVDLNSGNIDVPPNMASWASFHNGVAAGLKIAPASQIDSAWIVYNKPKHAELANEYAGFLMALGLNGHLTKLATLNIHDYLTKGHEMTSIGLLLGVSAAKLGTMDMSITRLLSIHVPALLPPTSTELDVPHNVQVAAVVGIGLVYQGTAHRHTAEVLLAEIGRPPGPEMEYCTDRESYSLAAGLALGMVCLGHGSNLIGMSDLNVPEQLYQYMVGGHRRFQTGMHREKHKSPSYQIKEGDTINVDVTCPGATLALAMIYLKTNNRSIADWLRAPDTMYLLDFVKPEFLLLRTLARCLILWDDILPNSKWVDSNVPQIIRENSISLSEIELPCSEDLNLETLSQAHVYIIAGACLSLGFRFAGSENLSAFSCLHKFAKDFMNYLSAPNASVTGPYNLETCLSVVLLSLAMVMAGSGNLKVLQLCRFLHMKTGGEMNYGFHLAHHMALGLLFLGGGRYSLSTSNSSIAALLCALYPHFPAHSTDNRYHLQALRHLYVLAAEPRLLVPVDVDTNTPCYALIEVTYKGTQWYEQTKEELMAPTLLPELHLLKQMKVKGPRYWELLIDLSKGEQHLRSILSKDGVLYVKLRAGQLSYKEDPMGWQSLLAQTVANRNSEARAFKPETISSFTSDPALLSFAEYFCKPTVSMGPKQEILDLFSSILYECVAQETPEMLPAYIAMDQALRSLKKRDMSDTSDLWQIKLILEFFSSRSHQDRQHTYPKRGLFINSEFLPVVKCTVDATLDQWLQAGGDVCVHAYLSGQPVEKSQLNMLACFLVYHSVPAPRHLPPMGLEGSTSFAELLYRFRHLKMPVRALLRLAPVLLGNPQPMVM

Experimental findings from publication PMC8639990 are described below.

Assay in all cases: affinity purification with mass spectrometry; nuclear extracts of retrovirally transduced 3T3-L1 preadipocytes (WT-, ΔSET- or Δ437-918-SETD5-V5); anti-V5 antibody cross-linked to Dynabeads protein G, 18 h at 4 °C; washes with 200 mM KCl, 0.1% Nonidet P-40; trypsin digestion, LC/MS/MS
Experiment [1] deals with V5-tagged SET domain deletion mutant (ΔSET) SETD5 (mouse) (UniProt Q5XJV7).
In experiment [2] the target is T1, V5-tagged SETD5 with deletion of amino acids 437–918 (Δ437–918) (mouse) (UniProt Q5XJV7).
T1 sequence: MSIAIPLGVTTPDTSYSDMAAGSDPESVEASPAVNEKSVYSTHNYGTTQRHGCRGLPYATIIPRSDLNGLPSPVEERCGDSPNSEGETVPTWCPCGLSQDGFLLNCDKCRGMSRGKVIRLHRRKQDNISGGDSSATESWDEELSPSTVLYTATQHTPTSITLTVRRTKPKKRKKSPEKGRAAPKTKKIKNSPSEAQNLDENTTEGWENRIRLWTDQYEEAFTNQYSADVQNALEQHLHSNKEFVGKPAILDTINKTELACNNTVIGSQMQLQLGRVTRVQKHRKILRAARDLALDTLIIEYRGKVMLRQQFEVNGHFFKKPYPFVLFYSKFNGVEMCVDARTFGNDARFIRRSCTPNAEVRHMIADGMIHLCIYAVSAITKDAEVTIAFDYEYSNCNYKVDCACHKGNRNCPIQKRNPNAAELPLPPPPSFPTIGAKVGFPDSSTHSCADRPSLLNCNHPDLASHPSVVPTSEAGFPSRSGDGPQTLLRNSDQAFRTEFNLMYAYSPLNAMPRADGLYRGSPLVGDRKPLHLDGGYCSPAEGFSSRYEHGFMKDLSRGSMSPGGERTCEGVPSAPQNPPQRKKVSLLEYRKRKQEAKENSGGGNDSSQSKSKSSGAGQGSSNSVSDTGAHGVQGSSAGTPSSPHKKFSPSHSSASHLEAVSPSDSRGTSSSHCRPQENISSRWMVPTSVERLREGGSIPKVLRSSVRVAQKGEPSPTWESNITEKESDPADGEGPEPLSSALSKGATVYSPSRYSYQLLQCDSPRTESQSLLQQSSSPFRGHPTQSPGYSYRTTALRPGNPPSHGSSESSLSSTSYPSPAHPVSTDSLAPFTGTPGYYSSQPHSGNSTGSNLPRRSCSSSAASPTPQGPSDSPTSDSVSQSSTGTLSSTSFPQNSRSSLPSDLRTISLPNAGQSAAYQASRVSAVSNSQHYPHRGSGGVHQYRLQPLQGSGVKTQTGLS

Experiment [3] deals with T2, V5-tagged SETD5 (SET domain-containing 5), wild type (mouse) (UniProt Q5XJV7).
T2 sequence: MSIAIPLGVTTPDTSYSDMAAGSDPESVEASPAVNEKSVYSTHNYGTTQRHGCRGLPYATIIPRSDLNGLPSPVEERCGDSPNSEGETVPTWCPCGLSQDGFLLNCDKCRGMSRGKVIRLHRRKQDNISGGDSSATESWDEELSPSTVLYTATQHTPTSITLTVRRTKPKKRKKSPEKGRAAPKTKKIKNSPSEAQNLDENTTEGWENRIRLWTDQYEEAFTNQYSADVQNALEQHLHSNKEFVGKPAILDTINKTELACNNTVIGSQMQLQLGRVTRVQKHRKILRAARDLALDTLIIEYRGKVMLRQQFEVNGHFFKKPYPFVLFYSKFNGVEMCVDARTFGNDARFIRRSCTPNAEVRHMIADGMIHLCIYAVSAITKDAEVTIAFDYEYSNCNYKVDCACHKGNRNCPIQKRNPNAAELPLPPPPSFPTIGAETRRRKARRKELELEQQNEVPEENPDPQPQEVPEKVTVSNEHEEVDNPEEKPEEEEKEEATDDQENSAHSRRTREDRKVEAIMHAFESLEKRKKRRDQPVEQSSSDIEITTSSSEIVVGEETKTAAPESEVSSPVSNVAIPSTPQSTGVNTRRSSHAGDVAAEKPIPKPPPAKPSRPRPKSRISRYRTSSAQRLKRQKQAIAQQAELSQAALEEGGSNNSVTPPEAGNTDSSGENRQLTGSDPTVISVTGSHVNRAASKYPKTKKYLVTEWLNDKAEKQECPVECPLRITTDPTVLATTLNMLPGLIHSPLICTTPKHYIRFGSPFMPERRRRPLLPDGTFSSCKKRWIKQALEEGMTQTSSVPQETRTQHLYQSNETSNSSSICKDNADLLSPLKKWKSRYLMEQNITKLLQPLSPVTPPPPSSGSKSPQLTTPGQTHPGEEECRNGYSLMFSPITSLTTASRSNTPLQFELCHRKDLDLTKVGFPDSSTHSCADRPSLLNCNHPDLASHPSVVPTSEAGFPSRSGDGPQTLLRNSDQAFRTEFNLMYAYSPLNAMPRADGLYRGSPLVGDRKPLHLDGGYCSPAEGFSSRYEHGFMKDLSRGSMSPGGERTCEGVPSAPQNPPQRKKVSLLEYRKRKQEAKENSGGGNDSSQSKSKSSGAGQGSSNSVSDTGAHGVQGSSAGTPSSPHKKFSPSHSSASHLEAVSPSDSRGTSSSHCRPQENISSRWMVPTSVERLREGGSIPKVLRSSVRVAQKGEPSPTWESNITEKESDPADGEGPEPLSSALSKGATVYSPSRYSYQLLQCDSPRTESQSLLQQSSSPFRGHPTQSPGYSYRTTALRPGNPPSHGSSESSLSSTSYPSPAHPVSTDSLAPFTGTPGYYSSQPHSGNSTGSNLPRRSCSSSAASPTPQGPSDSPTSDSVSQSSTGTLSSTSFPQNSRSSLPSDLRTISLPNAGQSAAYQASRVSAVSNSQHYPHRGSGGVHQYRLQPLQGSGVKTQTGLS

As to “NCoR (nuclear receptor co-repressor) (from UniProt Q60974 1-2453)”, the binding entry in experiment [1] was “binds”; in experiment [2], “no binding”; in experiment [3] it was “binds”.

For the molecule PRP4B (from UniProt Q61136 1-1007), the binding result in experiment [1] is given as “no binding”; in experiment [3], “binds”.

“RNF213 (from UniProt E9Q555 1-5148) (enzyme)”: the binding entry in experiment [1], in experiment [2] and in experiment [3] was “binds” each time.

Regarding ANAPC2 (from UniProt Q8BZQ7 1-837), the binding result in experiment [1], in experiment [2] and in experiment [3] was “binds” throughout.

Regarding ANAPC1 (from UniProt P53995 1-1944), the binding result in experiment [1], in experiment [2] and in experiment [3] was “binds” throughout.

B1: TBL1 (also known as TBL1X) (protein, UniProt Q9QXE7 1-527)
chain: MSITSDEVNFLVYRYLQESGFSHSAFTFGIESHISQSNINGTLVPPAALISILQKGLQYVEAEISINEDGTVFDGRPIESLSLIDAVMPDVVQTRQQAFREKLAQQQANAAAAAAAAAATATSTAATTPAAAAQQNPPKNGEATVNGEENGAHAINNHSKPMEIDGDVEIPPSKATVLRGHESEVFICAWNPVSDLLASGSGDSTARIWNLNENSNGGSTQLVLRHCIREGGHDVPSNKDVTSLDWNSDGTLLATGSYDGFARIWTEDGNLASTLGQHKGPIFALKWNKKGNYILSAGVDKTTIIWDAHTGEAKQQFPFHSAPALDVDWQNNTTFASCSTDMCIHVCRLGCDRPVKTFQGHTNEVNAIKWDPSGMLLASCSDDMTLKIWSMKQDACVHDLQAHSKEIYTIKWSPTGPATSNPNSNIMLASASFDSTVRLWDVERGVCIHTLTKHQEPVYSVAFSPDGKYLASGSFDKCVHIWNTQSGSLVHSYRGTGGIFEVCWNARGDKVGASASDGSVCVLDLRK
On to B1, for which the binding entry was “binds” in experiment [1], “no binding” in experiment [2] and “binds” in experiment [3].

B2: PLRG1 (protein, UniProt Q922V4 1-513)
chain: MVEEVQKHSVHTLVFRSLKRTHDMFVADNGKPVPLDEESHKRKMAIKLRNEYGPVLHMPTSKENLKEKGPQNATDSYPHKQYPANQGQDVEYLVTGTHPYPAGPGVALTADTKIQRMPSESAAQSLAVALPSQTRVDANRTGPAGSEYRHPGASDRSQPTAMNSIMETGNTKNSALMAKKAPTMPKPQWHPPWKLYRVISGHLGWVRCIAVEPGNQWFVTGSADRTIKIWDLASGKLKLSLTGHISTVRGVIVSTRSPYLFSCGEDKQVKCWDLEYNKVIRHYHGHLSAVYGLDLHPTLDVLVTCSRDSTARIWDVRTKASVHTLSGHTNAVATVRCQAAEPQIITGSHDTTIRLWDLVAGKTRVTLTNHKKSVRAVVLHPLLYTFASGSPDNIKQWKFPDGGFIQNLSGHNAIINTLAVNADGVLVSGADNGTMHLWDWRTGYNFQRVHAAVQPGSLDSESGIFACAFDRSESRLLTAEADKTIKVYREDETATEETHPVSWKPEIIKRKRF
On to B2, for which the binding result is reported as “no binding” in experiment [1] and “binds” in experiment [3].

B3: TBLR1 (protein, UniProt Q8BHJ5 1-514)
chain: MSISSDEVNFLVYRYLQESGFSHSAFTFGIESHISQSNINGALVPPAALISIIQKGLQYVEAEVSINEDGTLFDGRPIESLSLIDAVMPDVVQTRQQAYRDKLAQQHAAAAAAAAAATNQQGSAKNGENTANGEENGAHTIANNHTDMMEVDGDVEIPSNKAVVLRGHESEVFICAWNPVSDLLASGSGDSTARIWNLSENSTSGPTQLVLRHCIREGGQDVPSNKDVTSLDWNSEGTLLATGSYDGFARIWTKDGNLASTLGQHKGPIFALKWNKKGNFILSAGVDKTTIIWDAHTGEAKQQFPFHSAPALDVDWQSNNTFASCSTDMCIHVCKLGQDRPIKTFQGHTNEVNAIKWDPTGNLLASCSDDMTLKIWSMKQDNCVHDLQAHNKEIYTIKWSPTGPGTNNPNANLMLASASFDSTVRLWDVDRGICIHTLTKHQEPVYSVAFSPDGRYLASGSFDKCVHIWNTQTGALVHSYRGTGGIFEVCWNAAGDKVGASASDGSVCVLDLRK
B3: the binding result in experiment [1] is on record as “binds”; in experiment [2], “no binding”; in experiment [3], “binds”.
